These are yes or no findings as the source states them, for the method shown.
Target: VcSiaP wild type, untagged (Vibrio cholerae) (UniProt Q9KR64)
Experiment: dynamic light scattering

Protein sequences, listed by entry. Tags and fused reporters are not part of them. Residues count along the entry.
UniProt Q9KR64, residues 23-321: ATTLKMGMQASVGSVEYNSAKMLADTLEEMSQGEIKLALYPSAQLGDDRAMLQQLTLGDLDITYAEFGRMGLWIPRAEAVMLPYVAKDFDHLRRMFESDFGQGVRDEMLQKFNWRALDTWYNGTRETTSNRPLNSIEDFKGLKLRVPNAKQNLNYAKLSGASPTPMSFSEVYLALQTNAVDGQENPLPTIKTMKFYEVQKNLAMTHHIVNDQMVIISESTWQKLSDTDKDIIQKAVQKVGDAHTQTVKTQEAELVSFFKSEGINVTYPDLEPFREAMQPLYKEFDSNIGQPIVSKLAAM

VcSiaP wild type, untagged (from UniProt Q9KR64 23-321)
binding: no binding (tested: 40 mg/ml)

Source: doi:10.1101/2020.12.02.404004
